# The whole screen tested about 330,000 compounds, of which about 7,700 (2.3%) were called active. Inconclusive means that the source gave no clear call. Such entries were picked first, then a sample of the others. Calls follow the shape of the dose curve; as a rule, active = well fitted inhibition curve with a large enough effect; inconclusive = small, poorly fitted or top-dose-only effect, or effect the other way; inactive = flat fitted curve, though single readings scatter. Where the call is inconclusive, the potency comes from a doubtful curve fit.
# Test: qHTS screen for small molecules that inhibit ELG1-dependent DNA repair in human embryonic kidney (HEK293T) cells expressing luciferase-tagged ELG1; also: nearly all actives have a fitted effect of over 55% in size
# Conditions: HEK293T ELG1-luciferase reporter, luminescence, 16 h, DNA damage induced by 5-fluorouridine; series mostly up to 46.1 µM
# Procedure, shortened: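 HEK293T cells expressing luciferase-tagged ELG1 (2,000/well) received 5-Fluorouridine plus compound or DMSO for 16 hr at 37 °C. Luciferase was read by ONE-Glo luminescence after 30 min at room temperature.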
# Potency is read from the fitted curve at half-maximal effect.
row,SMILES,Potency
1,O=C(NCc1nnc(SCC(=O)N2CCOCC2)o1)c1cccs1,inactive
2,COc1ccc(NC(=O)CN(C)S(=O)(=O)c2ccc3c(c2)CC(C)N3C(C)=O)c(OC)c1 (stereo not drawn),"inconclusive: 25.9 µM [inhibitor, partial curve]"
3,O=C(CN(C(=O)CCC(=O)Nc1nccs1)c1ccccc1F)NCc1ccc(F)cc1,inactive
4,CCOc1ccc(NC(=O)Nc2cccs2)cc1,"inconclusive: 2.59 µM [activator, full curve]"
5,CCC1=Nc2cc(C(=O)NCCCOC)ccc2Sc2ccccc21,"inconclusive: 7.31 µM [activator, partial curve, poor fit]"
6,Cc1ccc(C)c(NC(=S)N2CCC(NC(=O)c3cccc(F)c3)CC2)c1,inactive
7,COc1ccc(-c2[nH]c(-c3ccc(C)cc3)nc2SCC(=O)NCc2ccco2)cc1OC,"inconclusive: 8.2 µM [inhibitor, partial curve, poor fit]"
8,CC(C)Oc1ccc(C2C(C(=O)c3ccco3)=C(O)C(=O)N2Cc2cccnc2)cc1 (stereo not drawn),"inconclusive: 20.6 µM [activator, partial curve, poor fit]"
9,Cc1ccccc1-c1nc(CS(=O)CC(=O)NCc2ccccc2)c(C)o1 (stereo not drawn),inactive
10,CS(=O)(=O)c1ccc2nc(NC(=O)c3cc([N+](=O)[O-])cc([N+](=O)[O-])c3)sc2c1,inactive
11,C=C(C(=O)c1ccccc1)C(CC(=O)c1ccccc1)c1ccccc1 (stereo not drawn),active: 13 µM
12,COC(C[C@H]1O[C@H]1[C@@H](O)COCc1ccccc1)OC,inactive
13,Cc1cc(C(=O)Cn2ncc(Cl)c(Cl)c2=O)c(C)n1CC(F)(F)F,"inconclusive: 29.1 µM [inhibitor, single point]"
14,CC(=O)c1ccc(S(=O)(=O)N2CCN(CCOc3ccccc3)CC2)cc1,inactive
15,Cc1ccsc1/C=N/NC(=O)c1c[nH]c2ccccc12,"inconclusive: 18.4 µM [activator, partial curve]"
16,O=C(COC(=O)Cn1ccc(=O)[nH]c1=O)Nc1ccc(F)cc1,inactive
17,COc1ccc(-n2ncc3c(N(C)C4CCCCC4)ncnc32)cc1,"inconclusive: 0.058 µM [activator, full curve]"
18,CCN1CCN(C(=O)c2ccc3c(=O)n(CCC4=CCCCC4)c(=O)[nH]c3c2)CC1,"inconclusive: 29.1 µM [inhibitor, single point]"
19,COC(=O)c1ccc(NC(=S)N2CCN(Cc3ccccc3Cl)CC2)cc1,"inconclusive: 29.1 µM [inhibitor, partial curve, poor fit]"
20,CC(=O)c1cccc(OCc2cc(C(=O)NCCC3=CCCCC3)no2)c1,"inconclusive: 18.3 µM [activator, partial curve]"
21,Oc1ccc(Nc2ncnc3c2oc2ccccc23)cc1,"inconclusive: 20.6 µM [activator, single point]"
22,O=C(/C=C/c1ccco1)NCCc1ccc(F)cc1,"inconclusive: 23.1 µM [activator, single point]"
23,O=C(CSc1nnc(Cc2cccs2)n1-c1ccccc1)NC1CCCCC1,"inconclusive: 8.2 µM [inhibitor, partial curve, poor fit]"

# Some of the entries so far, with bars between the fields.
row | SMILES | Potency
8 | CC(C)Oc1ccc(C2C(C(=O)c3ccco3)=C(O)C(=O)N2Cc2cccnc2)cc1 (stereo not drawn) | inconclusive: 20.6 µM [activator, partial curve, poor fit]
9 | Cc1ccccc1-c1nc(CS(=O)CC(=O)NCc2ccccc2)c(C)o1 (stereo not drawn) | inactive

# (more compounds)

row,SMILES,Potency
1,Cc1ccccc1C(=O)N=c1sccn1C,"inconclusive: 16.4 µM [activator, single point]"
2,Cc1ccc(NC2(c3nnnn3-c3c(C)cccc3C)CCCCC2)cc1,inactive
3,O=C(Nc1cc(S(=O)(=O)Nc2ccc(Cl)cc2)ccc1O)c1ccc(S(=O)(=O)N2CCCCCC2)cc1,"inconclusive: 23.1 µM [inhibitor, single point]"
4,Cc1ccc(CN2CC(C(=O)Nc3nnc(SCc4c(Cl)cccc4Cl)s3)CC2=O)cc1 (stereo not drawn),inactive
5,CCC(NC(=O)CC[C@H]1O[C@@H](n2cc(C)c(=O)[nH]c2=O)C[C@@H]1O)c1ccccc1 (stereo partly drawn),"inconclusive: 32.6 µM [activator, partial curve, poor fit]"
6,Cc1ccc(-c2cc(C(=O)NCc3ccccn3)c3ccccc3n2)cc1C,"inconclusive: 29.1 µM [inhibitor, single point]"
7,O=C(Nc1cccc(O)c1)c1cc(-c2ccco2)on1,"inconclusive: 16.4 µM [activator, partial curve]"
8,Brc1csc(C=Nc2ccc3c(c2)OCCOCCOCCOCCO3)c1,"inconclusive: 20.6 µM [activator, partial curve, poor fit]"
9,O=C(COc1ncnc2ccccc12)c1ccc2c(c1)OCCO2,"inconclusive: 4.61 µM [activator, full curve]"
10,COC(=O)Cc1ccc(NC(=O)c2ccc(Br)o2)cc1,"inconclusive: 20.6 µM [activator, partial curve]"
11,O=C(Nc1cc2nn(-c3ccccc3)nc2cc1Cl)c1ccco1,"inconclusive: 3.98 µM [activator, full curve]"
12,COc1ccc(C=O)cc1COc1ccccc1F,inactive
13,S=C(NCCN1CCOCC1)N/N=C/c1c2ccccc2cc2ccccc12,"inconclusive: 29.1 µM [inhibitor, single point]"
14,O=C(Nc1ccc(O)cc1)c1ccc(NC(=O)C2CCCO2)cc1 (stereo not drawn),"inconclusive: 18.3 µM [activator, single point]"
15,CCCn1c(NC(=O)c2ccccc2Br)nc2ccccc21,inactive
16,NS(=O)(=O)c1ccc(NC(=O)COc2ccc(Cl)cc2)cc1,inactive
17,C=CCNC(=O)/C=C/c1cccs1,"inconclusive: 29.1 µM [activator, partial curve, poor fit]"
18,COc1ccccc1C1NC(=O)CS1 (stereo not drawn),"inconclusive: 25.9 µM [inhibitor, partial curve, poor fit]"
19,N/C(=N\OC(=O)Cc1ccccc1)c1cccc(Br)c1,"inconclusive: 25.9 µM [activator, single point]"
20,O=C1c2ccccc2-c2nccnc21,inactive
21,COc1ccc(OC)c(-c2cc(C(=O)N/N=C(\C)c3cccnc3)c3ccccc3n2)c1,"inconclusive: 29.1 µM [inhibitor, single point]"
22,COc1ccc2oc(=N)c(-c3nnc4n3CCCCC4)cc2c1,"inconclusive: 18.4 µM [activator, partial curve, poor fit]"
23,O=C(CN1CCN(Cc2ccc(F)cc2)CC1)Nc1nc2ccccc2s1,"inconclusive: 23.1 µM [inhibitor, partial curve, poor fit]"

row,SMILES,Potency
1,C/C(=N\NC(=O)C1(C)CC1(Br)Br)c1cccc(NC(=O)c2ccc(C)o2)c1 (stereo not drawn),active: 7.3 µM
2,O=C(Nc1ccc(F)cc1)Nc1nnc(COc2ccccc2F)s1,"inconclusive: 23.1 µM [inhibitor, single point]"
3,CCOc1ccccc1-c1cc(C(=O)N/N=C/c2ccc3c(c2)OCO3)c2ccccc2n1,"inconclusive: 20.6 µM [inhibitor, partial curve]"
4,COc1ccc(S(=O)(=O)Cc2ccc(C(=O)N3CCN(c4ccccc4)CC3)o2)cc1,"inconclusive: 23.1 µM [inhibitor, single point]"
5,COC(=O)c1ccc(/C=C2\Oc3ccccc3NC2=O)cc1,"inconclusive: 2.06 µM [activator, partial curve]"
6,COC(=O)C(Nc1ccccc1Cl)(c1cc(C)c(O)c(C)c1)C(F)(F)F (stereo not drawn),"inconclusive: 10.3 µM [inhibitor, partial curve, poor fit]"
7,COc1ccc(-n2c3c(c(=O)[nH]c2=O)C(NC(C)=O)(C(F)(F)F)C(=O)N3)cc1 (stereo not drawn),inactive
8,O=C(COc1cccc(F)c1)Nc1nc(-c2cccnc2)cs1,"inconclusive: 32.6 µM [inhibitor, partial curve, poor fit]"
9,COC(=O)[C@@]1(Cc2ccccc2)[C@H]2C(=O)N(C)C(=O)[C@H]2[C@H]2CN=C(SCC(=O)c3ccccc3)N21,inactive
10,CC(=O)c1ccc(N2CCN(C(=O)C3CCN(S(=O)(=O)c4ccc(F)cc4)CC3)CC2)cc1,"inconclusive: 32.6 µM [inhibitor, single point]"
11,Cc1cc(Cl)c(S(=O)(=O)N2CCN(c3ccc(F)cc3)CC2)cc1OCC(N)=O,"inconclusive: 1.12 µM [inhibitor, single point]"
12,O=C(COc1ccc2c(c1)OCO2)Nc1ccc2c(c1)oc1ccccc12,inactive
13,Cc1cc(Oc2nc3c(C)cccn3c(=O)c2/C=C(\C#N)S(=O)(=O)c2ccccc2)ccc1Cl,"inconclusive: 29.1 µM [inhibitor, partial curve, poor fit]"
14,COc1ccc(OCCOc2ccc(C)nc2[N+](=O)[O-])cc1,"inconclusive: 14.6 µM [activator, partial curve]"
15,COc1cc(CNCCO)cc(Cl)c1OCc1ccccc1Cl,"inconclusive: 5.8 µM [inhibitor, partial curve]"
16,O=c1[nH]c(O)c(/C=C2\C=Nc3ccccc32)[nH]1,"inconclusive: 16.4 µM [activator, partial curve]"
17,OCC[C@H]1C[C@@H](O)[C@H](O)[C@@]2(Cc3ccccc3O2)O1,inactive
18,O=C(Nc1cccc(S(=O)(=O)N2CCCCC2)c1)C1COc2ccccc2O1 (stereo not drawn),"inconclusive: 23.1 µM [inhibitor, single point]"
19,C(=N\Nc1nc(-c2ccccc2)cs1)/c1ccco1,"inconclusive: 2.59 µM [activator, full curve]"
20,CC(=O)c1ccc(NC(=O)c2ccc(C)c(Br)c2)cc1,"inconclusive: 1.64 µM [activator, full curve]"
21,CCN(Cc1ccncc1)Cc1cn[nH]c1-c1cc(OC)c(OC)c(OC)c1,"inconclusive: 29.1 µM [activator, single point]"
22,COc1ccc(CCNC(=O)c2cc(C(=O)c3cc(Cl)ccc3O)cn(CCc3ccc(OC)cc3)c2=O)cc1,"inconclusive: 23.1 µM [inhibitor, partial curve]"
